{"source": "patent US5780588A", "about": "(priority 1993, dated 1998)", "experiment": "solution-phase peptide synthesis", "details": "coupling step"}
{"substance": "Dov-Val-Dil-Dap-Pro-OCH3", "values": [{"measurement": "step yield", "value": 69, "unit": "%"}]}
